# Counter-ions that a name gives are not always drawn. The list shows a part of the results. Small differences around the control level are noise. Where a SMILES comes first, the peptide text is derived from it. Bridges are numbered along the chain shown (N, C = ends). [ ]: non-standard residue; d: D form. hArg = N=C(N)NCCCC[C@H](N)C(=O)O; Mpa = O=C(O)CCS
# Legend:
# Conditions in all cases: 5 µM; treatment: days 7-14 after plating, readout day 21
# [1] = system: hPSC-derived cortical neurons (WA09); test: nucleus area z-score vs screen plate; higher = larger nuclei (more mature)
# [2] = system: hPSC-derived cortical neurons (WA09); test: total neurite length per nucleus (MAP2) z-score; higher = more neurite growth
# [3] = system: hPSC-derived cortical neurons (WA09); test: nucleus roundness z-score vs screen plate; higher = rounder nuclei (more mature)
# [4] = system: hPSC-derived cortical neurons (WA09); test: KCl-induced FOS+/EGR-1+ double-positive nuclei fraction z-score (KCl minus unstimulated); higher = stronger activity-induced IEG response
Compound,nucleus area z-score [1],total neurite length per nucleus (z-score) [2],nucleus roundness z-score [3],KCl-induced FOS+/EGR-1+ double-positive nuclei fraction z-score [4]
O=c1[nH]cc(F)c(=O)[nH]1 [Fluorouracil (5-Fluoracil_ 5-FU)],0.976,0.253,0.473,0.283
CS(=O)(=O)c1ccc([C@@H](O)[C@@H](CO)NC(=O)C(Cl)Cl)cc1 [Thiamphenicol],-0.211,-1.47,-0.707,-0.415
CCOC(=O)O[C@]1(C(=O)OCCl)CC[C@H]2[C@@H]3CCC4=CC(=O)C=C[C@]4(C)[C@H]3[C@@H](O)C[C@@]21C [Loteprednol etabonate],-0.276,0.0728,-0.559,-0.344
CC(CCc1ccc(O)cc1)NCC(O)c1ccc(O)cc1 (stereo not given) [Ractopamine HCl],0.44,0.908,0.311,0.748
O=S(=O)(O)NC1CCCCC1 [Cyclamic  acid],1.43,-0.963,-1.96,-1.3
Cn1cc(-c2ccc3nnc(Sc4ccc5ncccc5c4)n3n2)cn1,-0.694,0.15,0.447,-0.228
CCN[C@@H]1C[C@H](N)[C@@H](O[C@H]2OC(CN)=CC[C@H]2N)[C@H](O)[C@H]1O[C@H]1OC[C@](C)(O)[C@H](NC)[C@H]1O [Netilmicin Sulfate],-0.0415,-1.42,-0.877,-0.634
COc1ccc(-n2c(SCCCN3C(=O)c4cccc5cccc(c45)C3=O)nnc2-c2ccncc2)cc1,-0.362,-0.283,0.262,0.413
Cc1ccnc(NS(=O)(=O)c2ccc(N)cc2)n1 [Sulfamerazine],-0.515,-0.178,-0.174,1.01
NC(=O)[C@@H]1CSSCCC(=O)N[C@@H](CCCCN=C(N)N)C(=O)NCC(=O)N[C@@H](CC(=O)O)C(=O)N[C@@H](Cc2c[nH]c3ccccc23)C(=O)N2CCC[C@H]2C(=O)N1 [Eptifibatide Acetate] ([Mpa][hArg]GDWPC-NH2; disulfide 1-7),-0.00379,-0.448,-0.52,0.84

# Reference: the supplement of paper PMC11348887
